To fix the notation:
T1: Srp2-HTP (S. pombe) (UniProt P78814)
T1 sequence: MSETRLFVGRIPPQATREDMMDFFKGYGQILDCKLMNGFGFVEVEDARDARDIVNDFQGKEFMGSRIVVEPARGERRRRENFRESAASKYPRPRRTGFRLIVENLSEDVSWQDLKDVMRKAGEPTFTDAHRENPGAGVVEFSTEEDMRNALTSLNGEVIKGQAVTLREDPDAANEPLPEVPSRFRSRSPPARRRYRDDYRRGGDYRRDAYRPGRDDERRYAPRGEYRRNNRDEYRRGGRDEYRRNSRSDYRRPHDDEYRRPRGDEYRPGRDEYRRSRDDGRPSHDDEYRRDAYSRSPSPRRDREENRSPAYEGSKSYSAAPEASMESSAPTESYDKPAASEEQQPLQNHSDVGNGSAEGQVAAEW

The chains behind the UniProt entries cited, without tags or fusion partners.
UniProt P24782: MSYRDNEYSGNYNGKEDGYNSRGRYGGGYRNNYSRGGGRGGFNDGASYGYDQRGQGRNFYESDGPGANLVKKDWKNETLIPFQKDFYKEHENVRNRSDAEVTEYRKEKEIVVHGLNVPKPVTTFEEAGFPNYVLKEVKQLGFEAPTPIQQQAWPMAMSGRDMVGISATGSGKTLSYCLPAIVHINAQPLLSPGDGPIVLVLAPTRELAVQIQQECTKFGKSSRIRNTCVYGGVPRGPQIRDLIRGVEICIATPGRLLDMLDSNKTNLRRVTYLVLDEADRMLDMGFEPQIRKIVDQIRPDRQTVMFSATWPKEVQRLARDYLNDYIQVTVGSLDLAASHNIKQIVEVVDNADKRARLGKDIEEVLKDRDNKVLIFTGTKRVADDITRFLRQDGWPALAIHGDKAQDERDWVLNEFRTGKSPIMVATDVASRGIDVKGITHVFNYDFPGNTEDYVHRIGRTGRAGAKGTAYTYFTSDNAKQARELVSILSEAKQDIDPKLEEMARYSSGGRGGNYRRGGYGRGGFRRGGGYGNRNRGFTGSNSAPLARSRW

B1: type I protein arginine N-methyltransferase (PRMT1) Rmt1 (enzyme, UniProt Q9URX7 1-340)
chain: MPGNTKKSADSGLTAKDYYFDSYSHWGIHEEMLKDDVRTLSYRDAIMQNPHLFRDKIVLDVGCGTGILSMFCARAGAKHVYGVDMSEIIHKAVQIVEVNKLSDRITLIQGKMEEIQLPVEKVDIIVSEWMGYFLLYESMLDTVLVARDRYLAPDGLLFPDRAQIQLAAIEDADYKSEKIGFWDDVYGFDFSPIKKDVWKEPLVDTVDRIAVNTNSCVILDLDLKTVKKEDLAFSSPFEITATRNDFVHAFLAWFDIEFSACHKPIKFSTGPFSRYTHWKQTVFYTHKDLTVKAGEYIRGTITCKPAEGNHRELDIDISYTFNPREPNREPVSEDLSYRMC
B2: elongation factor Spt5 (protein, UniProt O13936 1-990)
chain: MDTNSPKSIDKDANSTEVDAAEQDAASVKINSTRASPNGSDLLNDDSEAAKITTNEKQSSPVDSHNESPNDTTINKGEDGNENEVDNVNNNDKKEDEDNVEENEEEADANEEEEEDEEDDEEDEEDEDESGGGRRKRARHDRRNQFLDIEAEVDEDEEELEDEEDEIGREDGFIEEEVGADYVGDDRRHRELDRQRQELQSVDAERLAEEYREKYGRSQTVVGDTSNVPQRLLLPSVNDPNIWAVRCKIGKEKDIVFTIMRKAMDLQYTSSPLEIISAFQRDSLVGYIYVEARKQSHVLDALNGVLNVYTNNMILVPIKEMPDLLKVQKQVVELLPGAYVRIRRGKYAGDLAQVDNLSENGLTARVRIVPRIDYSDGLKRKNSATRPQARLFNESEAFKSNPSKFSKRGPRLFLFNNEEFEDGFLVKDIRISSLITEGVNPTLDEVSKFNPNNEDLDLSSLALSVKGGHAEFQPGDHVEVYVGEQTGVSGVVENVRGSVITMVSSDGLRLDVPSRGLRKRFRHGDYVKVIAGKYKDDTGMVVRISKDEVTFLSDTLMTELTVFSRDLGEASSAQAVNSAYELHDLVQLDVNTVACIFSVDRDTYKVIDQNGGVRTVLASQITMRHSNRRGVATDRNGAEIRIGDKVKEVGGEGKQGTILHIYRAFVFLHNRDIAENNGVFSARSRNVATIAAKGARISADLTKMNPALSNGPALPPVANLKRTIGRDKAIGATVRIRRGPMKGLLGVIKDTTDANARVELHTGNKMVTIPKENLLYTTKTGELISYTEFIERSRGIRPGSISTADGPNVPNWAQGARTPAVANGSRTPAWNTGSRTPAWNSGSKTPAWNSGSRTPAWNSGNKTPAWNAGSRTPAWNSGNKTPAWNVGNKTPAWNSGAKTPAWNAGNKTPSWNNGTKTPAWNANQTPMVANGTNTSWGQTPAYGGFSETNWDTEDNSKPYTAPTPGAWAAPTPGGWDDEEGDSPKYVPPSP
B3: Red1, a core component of MTREC (protein, UniProt Q9UTR8 1-712)
chain: MSRSINLDELRKKALESKKKNEEDESNDSDKEDGEISEDDPVIDQSNSVPPMKVPTFPEQIPQLPPFDRFPGTNANFFPFGAPFMLPPALMFGPNTVPFFPQTASSNKTFSKRKRSSENSFNNRNKAKSSETSDSSNTSQSFKENRALKDTATSRPLALSSDTSYQKSEKAKSEKSPFLSTSKNSDANYSKTTNQKEAEKAVSQLFEVGVRFNDFIAEGIEPSVVHTLFLKLGLDSSSASSQGSLTLSADKAARSAKLRKIDSNLSDTHILPGDNGTPTVLPERKNLISLPLLKQDDWLSSSKPFGSSTPNVVIEFDSDDDGDDFSNSKIEQSNLEKPPSNSENGLTMSRSDYLALLRNKEEEIRRMTKLILRLESNKKPYRSPTSAADMKLPSVPVAAVDNKSKTHLDTFEKVVDLSSKADFVEAGPSISSSGASSSAATTNSDTTEQILEAPWLRKTEQIAVVHEEHPAQIKKSEIDILNNLIEKEEGELTKYQTLVKSKTEILTQLYTRKKQLLEQQGKGNVACLPKESDLSMDSITEVSAQADENSSQILSSKTSNAPNGTTETDFEDKVPLVDYISPFYRFKSYRFNQQFVERVPLKYRSLTYSNKIEPMKVFCKYETTGGVCNDDHCEASHFRDIKMTDDEIIQDLSRYIEGNDEIEKESYKSGLDIVMKNTDENTDFVDVATRIVEYHNLWKSERMTIPVAKVSI
B4: Mex67 (protein, UniProt Q9Y8G3 1-596)
chain: MLRRKRERRNAVKENEMVIDTPLEKRRTPGKPRATREPPISVVITGHSKGSEDDLISFVWRKVKVRLMNISYSPASVTAVVKSQDFSRLNGLNGAAFAGDHLAIRRVDGASNVTQDYRKAKTKRSFRSVSAPSLSALATQAQRNVSKTLPQSTNETIEKLRQFLQTRYQPATKFLDLGNLQQDPLLKQMGILAEASTKSKMFPALMKVASLNFPDVISVSLSDNNLQSVTAVTTLAQTWPKLLNLSLANNRITSLSDLDPWSPKTKLPELQELVLVGNPIVTTFANRAMDYQREMVSRFPKLRLLDGNSINSEIIASQSTVPFPVYQSFFDKVETEQIVNSFLAAFFKGWDENRSALVNQLYSPNATFSISLNASNVRTNFSQKTDTKKWGAYKMKSRNLLYSQSQKESKSRLFNGHEEISNAVKSLPATAHDLSDRSQWVFDGWNLVLPSVGAAIKIVVHGQFEEPQNKRLLRSFDRTLLILPGGSTGILIINDLLVIRSFAGSLGWLPGQSSVRTSNNAMSASASKPSDIVQPRPEQAMLDTRQQIVLKIKAETGLNDYYAHMCCEQNNWDYNSALASFLELKSRNVIPAEAFS
B5: Yra1 homologue Mlo3 (protein, UniProt Q09330 1-199)
chain: MSMELDQSLDAIIASKPKGGIRKRRARSNKPKPTKNAKPAVNTASALKSVISEESKIIVSNLPTDVTEAQVKELFVKSIGPCKRVSLAYGPNGRSKGIATIIFSRPGDATRAYEQYEGRLVDGTRKMKVEIILDPSRQLNSLAARVSPASNASATASKNGAKSSKRKTTRRRRTPNRPKKSAEELDKEMDDYFGSNEKE
B6: SR protein kinase Dsk1 (enzyme, UniProt P36616 1-544)
chain: MGSDGSSLSPKVSQPGHTEIVDHVSEKVITNGKNVNKKVNAEVDGKSMVEKVKTHEENAEDYHYGGYHPVYIGEEFHHRRYVVERKLGWGHFSTVWLAYDRAAKRRVALKVVRSAEHYRETSIDEIRILQKIREGDEKHLGKKHIISLLDYFVHRGPNGAHVCMVFEVLGENLLSLIQSYGHRGVPVGIVKQIAYQLLIALDYLHRECGIIHTDLKPENVLICIDQDALQHIEAPATTSSPTSNTSSSKTRNNTGYTAKAPIIKRGQSVDNSAQERKTFAKNPTKNSKPAGQVIPSSPFTSTLSRFPSLEGAVSEISLRDSQKHNSHPNSPFSSGDNSLILDGVNGSQEPVPKITVKIADLGNACWTRKHFTNDVQTRQYRSPEVILGCRWGASADCWSFACIIFELLTGDYLFDPRNGNSYSKEDDHIAQIIELLVNYPKQMALSGKHSRDLFNRRGELRNIHKLKFWPLKDVLEQKYHFSAELAQQISDFLSPMLCFDPAKRTNAGYMSNSPWLREVADPTFKIETTGATGEDVPGWATEIR
B7: Rpb8 (protein, UniProt Q92399 1-125)
chain: MSESVLLDEIFTVTSVDKQKYQRVSRITAVSGQNDMNLTLDINSQIYPLEKDATFSLQITSNLNSPDLKEAADYIMYGKVYRVEEAKDEKVSVYVSFGGLLMAIEGSHRKLYRLSLDHVYLLLRR

From article PMC11315920 come the findings set out here.

These are yes or no findings as the source states them, for the method shown. Binding seen in cells or lysates may run through a third protein. A yes stands for co-enrichment or nearness to the bait. Other partners may have been found.

The first assay concerns the target Dbp2-HTP (S. pombe) (UniProt P24782). In words: affinity purification with mass spectrometry; comparative interaction profiling: cells crosslinked with 0.01% formaldehyde for 10 min at 30 °C; HTP-tagged bait on IgG-sepharose, TEV elution, Ni-NTA agarose, imidazole elution; shotgun proteomics (LFQ), Dbp2-HTP relative to Srp2-HTP, no untagged control; n = 3 biological replicates.
On to B1, for which the binding result is on record as “binds”.

B2: the binding result is listed as “binds”.

Take B3: the binding entry is listed as “binds”.

B4: the binding entry is recorded as “binds”.

Turning to B5, the binding entry is listed as “binds”.

For a further assay, the target named is T1, Srp2-HTP (S. pombe). The description is as above.
Take B2: the binding entry is reported as “binds”.

As for B6, the binding result is reported as “binds”.

Regarding B7, the binding entry is “binds”.
